For 38 targets, log2 fold change results are on record in the supplement of paper PMC10849652.

The chains behind the UniProt entries cited, without tags or fusion partners. Where a name states a change or a piece, a line headed by the entry shows the natural chain unless it says otherwise.
UniProt P10620: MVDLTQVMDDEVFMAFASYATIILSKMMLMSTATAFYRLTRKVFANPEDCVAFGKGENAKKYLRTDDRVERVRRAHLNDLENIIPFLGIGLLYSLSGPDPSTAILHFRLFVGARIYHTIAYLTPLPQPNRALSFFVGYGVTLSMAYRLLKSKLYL
UniProt Q9BV20: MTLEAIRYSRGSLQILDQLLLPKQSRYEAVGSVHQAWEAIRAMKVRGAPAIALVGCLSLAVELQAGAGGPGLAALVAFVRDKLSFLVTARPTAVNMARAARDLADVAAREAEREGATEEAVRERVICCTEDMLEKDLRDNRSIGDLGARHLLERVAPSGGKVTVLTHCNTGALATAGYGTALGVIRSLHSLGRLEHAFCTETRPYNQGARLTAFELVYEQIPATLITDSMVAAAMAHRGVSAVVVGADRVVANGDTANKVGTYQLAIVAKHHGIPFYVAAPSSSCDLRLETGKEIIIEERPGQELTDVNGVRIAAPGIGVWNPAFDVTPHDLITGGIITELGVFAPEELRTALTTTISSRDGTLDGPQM
UniProt Q9BU76: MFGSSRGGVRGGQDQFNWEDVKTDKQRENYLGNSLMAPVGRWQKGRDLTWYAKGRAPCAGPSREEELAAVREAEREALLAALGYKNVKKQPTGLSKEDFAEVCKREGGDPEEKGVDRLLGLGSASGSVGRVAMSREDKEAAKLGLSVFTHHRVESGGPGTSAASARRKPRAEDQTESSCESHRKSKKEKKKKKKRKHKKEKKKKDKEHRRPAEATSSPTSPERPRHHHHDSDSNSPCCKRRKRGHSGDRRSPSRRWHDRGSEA
UniProt O95297: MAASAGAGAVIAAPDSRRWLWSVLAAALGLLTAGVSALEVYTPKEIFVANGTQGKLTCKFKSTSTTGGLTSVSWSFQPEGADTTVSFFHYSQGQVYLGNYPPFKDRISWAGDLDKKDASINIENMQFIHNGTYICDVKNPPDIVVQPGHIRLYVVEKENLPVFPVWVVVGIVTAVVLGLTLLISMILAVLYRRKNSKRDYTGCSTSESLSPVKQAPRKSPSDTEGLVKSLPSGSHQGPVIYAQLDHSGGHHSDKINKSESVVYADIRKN
UniProt Q5TGZ0: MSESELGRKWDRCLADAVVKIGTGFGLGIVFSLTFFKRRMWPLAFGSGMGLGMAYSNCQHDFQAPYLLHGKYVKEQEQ
UniProt Q9UHC7: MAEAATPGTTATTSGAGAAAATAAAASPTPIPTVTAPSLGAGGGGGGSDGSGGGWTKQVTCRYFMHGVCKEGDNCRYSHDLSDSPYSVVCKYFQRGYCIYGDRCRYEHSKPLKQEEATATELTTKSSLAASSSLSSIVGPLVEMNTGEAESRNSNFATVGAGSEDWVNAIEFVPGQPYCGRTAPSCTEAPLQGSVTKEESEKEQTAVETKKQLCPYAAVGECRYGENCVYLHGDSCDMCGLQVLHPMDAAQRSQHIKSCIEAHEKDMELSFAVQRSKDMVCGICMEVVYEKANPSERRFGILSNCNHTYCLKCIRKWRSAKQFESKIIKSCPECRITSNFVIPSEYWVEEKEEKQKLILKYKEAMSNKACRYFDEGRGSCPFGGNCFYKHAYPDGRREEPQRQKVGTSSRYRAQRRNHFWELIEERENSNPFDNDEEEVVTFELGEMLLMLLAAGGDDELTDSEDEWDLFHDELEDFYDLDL
UniProt Q8N3F8: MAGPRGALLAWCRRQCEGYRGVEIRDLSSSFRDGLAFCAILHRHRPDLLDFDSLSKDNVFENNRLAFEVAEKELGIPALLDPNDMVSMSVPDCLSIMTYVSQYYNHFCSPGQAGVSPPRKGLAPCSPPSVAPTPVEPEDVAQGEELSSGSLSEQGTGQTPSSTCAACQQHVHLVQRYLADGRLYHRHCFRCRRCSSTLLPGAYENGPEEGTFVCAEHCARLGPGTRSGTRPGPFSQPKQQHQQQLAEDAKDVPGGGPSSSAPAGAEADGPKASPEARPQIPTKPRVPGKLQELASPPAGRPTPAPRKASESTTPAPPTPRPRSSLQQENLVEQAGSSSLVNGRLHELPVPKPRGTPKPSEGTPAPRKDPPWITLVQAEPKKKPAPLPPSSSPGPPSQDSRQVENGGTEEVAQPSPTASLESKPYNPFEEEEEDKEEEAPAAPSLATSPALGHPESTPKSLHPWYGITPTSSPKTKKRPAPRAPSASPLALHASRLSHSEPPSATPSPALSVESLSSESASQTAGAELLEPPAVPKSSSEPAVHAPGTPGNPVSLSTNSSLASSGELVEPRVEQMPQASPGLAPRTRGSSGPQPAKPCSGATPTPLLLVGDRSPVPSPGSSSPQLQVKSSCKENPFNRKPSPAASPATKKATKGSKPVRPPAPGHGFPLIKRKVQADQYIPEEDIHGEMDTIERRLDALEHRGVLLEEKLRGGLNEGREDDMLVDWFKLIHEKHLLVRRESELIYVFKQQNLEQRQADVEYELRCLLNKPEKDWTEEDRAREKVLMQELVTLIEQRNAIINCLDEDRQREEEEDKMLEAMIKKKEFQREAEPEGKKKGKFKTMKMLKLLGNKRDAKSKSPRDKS
UniProt Q9UBU8, whole entry, looked up: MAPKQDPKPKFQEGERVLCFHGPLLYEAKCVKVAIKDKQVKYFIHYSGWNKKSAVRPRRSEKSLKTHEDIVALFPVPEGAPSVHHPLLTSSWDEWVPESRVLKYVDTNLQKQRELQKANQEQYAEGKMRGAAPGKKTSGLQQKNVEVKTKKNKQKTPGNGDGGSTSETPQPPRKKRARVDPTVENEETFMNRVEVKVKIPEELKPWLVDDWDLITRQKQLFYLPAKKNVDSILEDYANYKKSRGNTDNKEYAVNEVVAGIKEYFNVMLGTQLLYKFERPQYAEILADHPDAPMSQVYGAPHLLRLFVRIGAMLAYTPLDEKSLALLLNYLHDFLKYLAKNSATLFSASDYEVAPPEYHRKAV
UniProt O95563: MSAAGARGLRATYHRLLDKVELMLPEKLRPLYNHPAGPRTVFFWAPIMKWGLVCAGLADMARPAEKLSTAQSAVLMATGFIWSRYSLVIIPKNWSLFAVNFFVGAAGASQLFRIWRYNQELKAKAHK
UniProt Q9H000: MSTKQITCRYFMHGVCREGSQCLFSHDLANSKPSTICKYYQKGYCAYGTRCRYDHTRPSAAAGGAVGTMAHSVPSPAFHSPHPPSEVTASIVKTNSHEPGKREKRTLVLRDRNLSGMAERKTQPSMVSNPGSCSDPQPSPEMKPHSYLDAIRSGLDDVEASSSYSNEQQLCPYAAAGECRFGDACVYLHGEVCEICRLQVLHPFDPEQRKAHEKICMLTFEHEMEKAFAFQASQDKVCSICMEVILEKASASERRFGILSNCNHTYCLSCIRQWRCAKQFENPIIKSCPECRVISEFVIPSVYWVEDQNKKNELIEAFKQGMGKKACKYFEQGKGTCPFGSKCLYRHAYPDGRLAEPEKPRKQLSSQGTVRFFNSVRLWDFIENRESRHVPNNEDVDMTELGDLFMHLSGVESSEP
UniProt P22033: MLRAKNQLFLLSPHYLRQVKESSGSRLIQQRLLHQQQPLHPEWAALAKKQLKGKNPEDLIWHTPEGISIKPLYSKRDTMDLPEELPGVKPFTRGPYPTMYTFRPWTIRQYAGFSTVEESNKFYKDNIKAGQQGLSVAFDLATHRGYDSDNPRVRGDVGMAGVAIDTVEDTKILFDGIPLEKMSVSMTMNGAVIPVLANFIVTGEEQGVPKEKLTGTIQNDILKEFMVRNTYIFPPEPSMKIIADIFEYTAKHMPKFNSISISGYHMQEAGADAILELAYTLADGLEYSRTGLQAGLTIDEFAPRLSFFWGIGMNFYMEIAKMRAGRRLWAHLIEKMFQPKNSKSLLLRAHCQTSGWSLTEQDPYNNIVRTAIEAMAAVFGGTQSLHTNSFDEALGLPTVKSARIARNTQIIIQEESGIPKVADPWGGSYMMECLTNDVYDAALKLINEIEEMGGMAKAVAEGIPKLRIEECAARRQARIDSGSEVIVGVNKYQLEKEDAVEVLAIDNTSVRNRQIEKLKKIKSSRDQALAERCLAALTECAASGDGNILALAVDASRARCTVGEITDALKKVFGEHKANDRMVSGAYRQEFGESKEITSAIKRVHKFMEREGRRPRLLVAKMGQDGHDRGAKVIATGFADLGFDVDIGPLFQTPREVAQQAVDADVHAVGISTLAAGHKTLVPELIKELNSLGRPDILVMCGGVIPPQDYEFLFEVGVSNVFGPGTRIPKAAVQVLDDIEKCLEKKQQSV
UniProt Q9Y6X9: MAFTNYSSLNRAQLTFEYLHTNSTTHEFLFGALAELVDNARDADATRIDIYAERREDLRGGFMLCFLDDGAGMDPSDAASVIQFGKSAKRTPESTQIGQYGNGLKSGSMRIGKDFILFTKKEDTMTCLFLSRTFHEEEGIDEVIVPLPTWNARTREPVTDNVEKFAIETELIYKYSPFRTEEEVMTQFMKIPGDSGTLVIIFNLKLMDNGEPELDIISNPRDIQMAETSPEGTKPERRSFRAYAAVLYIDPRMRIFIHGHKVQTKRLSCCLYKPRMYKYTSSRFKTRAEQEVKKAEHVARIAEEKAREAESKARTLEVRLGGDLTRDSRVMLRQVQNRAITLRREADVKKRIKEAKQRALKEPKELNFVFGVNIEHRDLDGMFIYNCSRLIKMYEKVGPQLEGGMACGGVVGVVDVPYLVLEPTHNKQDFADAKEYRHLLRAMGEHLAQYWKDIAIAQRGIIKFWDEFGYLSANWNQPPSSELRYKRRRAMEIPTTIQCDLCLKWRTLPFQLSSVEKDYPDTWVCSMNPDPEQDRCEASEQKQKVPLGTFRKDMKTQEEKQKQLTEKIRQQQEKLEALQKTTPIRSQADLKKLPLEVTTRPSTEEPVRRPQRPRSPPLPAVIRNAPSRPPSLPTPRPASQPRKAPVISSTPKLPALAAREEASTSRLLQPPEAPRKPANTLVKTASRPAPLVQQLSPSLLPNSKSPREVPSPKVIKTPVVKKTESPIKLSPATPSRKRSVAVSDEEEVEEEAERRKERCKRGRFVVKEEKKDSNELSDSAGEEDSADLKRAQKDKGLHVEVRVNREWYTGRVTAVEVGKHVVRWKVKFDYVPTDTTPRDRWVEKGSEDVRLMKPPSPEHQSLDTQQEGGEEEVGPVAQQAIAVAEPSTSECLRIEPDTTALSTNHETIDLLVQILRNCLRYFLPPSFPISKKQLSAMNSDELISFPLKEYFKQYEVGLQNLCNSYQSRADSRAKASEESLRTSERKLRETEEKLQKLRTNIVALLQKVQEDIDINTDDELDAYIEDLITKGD
UniProt Q9HC36: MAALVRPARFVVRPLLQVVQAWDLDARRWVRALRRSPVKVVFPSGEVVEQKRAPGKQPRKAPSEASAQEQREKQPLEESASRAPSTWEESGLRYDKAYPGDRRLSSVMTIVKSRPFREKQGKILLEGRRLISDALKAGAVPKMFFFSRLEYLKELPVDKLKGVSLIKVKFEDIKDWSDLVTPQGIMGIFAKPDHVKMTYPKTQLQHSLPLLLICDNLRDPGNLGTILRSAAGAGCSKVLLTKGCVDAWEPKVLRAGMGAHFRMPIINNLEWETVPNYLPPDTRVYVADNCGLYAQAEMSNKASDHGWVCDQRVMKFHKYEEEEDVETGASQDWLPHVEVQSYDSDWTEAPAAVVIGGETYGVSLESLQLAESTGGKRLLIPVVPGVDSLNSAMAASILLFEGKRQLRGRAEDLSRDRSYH
UniProt Q9HCE1: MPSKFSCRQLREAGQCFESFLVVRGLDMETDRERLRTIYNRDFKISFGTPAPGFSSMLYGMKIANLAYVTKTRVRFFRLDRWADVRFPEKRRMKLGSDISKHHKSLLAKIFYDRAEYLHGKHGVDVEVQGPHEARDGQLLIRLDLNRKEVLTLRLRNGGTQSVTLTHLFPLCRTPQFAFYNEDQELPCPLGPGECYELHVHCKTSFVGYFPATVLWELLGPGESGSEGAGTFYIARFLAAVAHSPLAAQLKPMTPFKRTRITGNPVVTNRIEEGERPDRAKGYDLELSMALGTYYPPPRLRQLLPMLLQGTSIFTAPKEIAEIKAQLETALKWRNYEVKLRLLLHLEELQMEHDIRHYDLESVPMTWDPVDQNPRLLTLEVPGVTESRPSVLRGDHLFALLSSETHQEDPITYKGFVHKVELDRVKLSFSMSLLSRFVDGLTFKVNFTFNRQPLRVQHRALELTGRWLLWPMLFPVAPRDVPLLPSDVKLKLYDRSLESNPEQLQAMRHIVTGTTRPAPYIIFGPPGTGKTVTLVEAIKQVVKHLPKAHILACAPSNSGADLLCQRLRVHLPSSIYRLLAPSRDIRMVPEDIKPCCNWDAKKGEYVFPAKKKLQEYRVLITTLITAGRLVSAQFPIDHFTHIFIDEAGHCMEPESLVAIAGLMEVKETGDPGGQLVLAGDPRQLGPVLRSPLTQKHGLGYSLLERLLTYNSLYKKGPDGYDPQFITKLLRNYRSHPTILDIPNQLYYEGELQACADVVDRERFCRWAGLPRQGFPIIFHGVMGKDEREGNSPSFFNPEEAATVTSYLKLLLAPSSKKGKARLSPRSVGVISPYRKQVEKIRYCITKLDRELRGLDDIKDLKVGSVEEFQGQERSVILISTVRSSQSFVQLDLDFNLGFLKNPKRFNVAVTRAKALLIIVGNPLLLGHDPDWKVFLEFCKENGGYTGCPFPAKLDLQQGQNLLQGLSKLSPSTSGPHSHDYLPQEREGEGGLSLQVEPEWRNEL

The list shows a part of the results.

Compound in the first experiment: C=CC(=O)N1CCC[C@@H](n2nc(-c3ccc(Oc4ccccc4)cc3)c3c(N)ncnc32)C1 [ibrutinib]
The experiment is described as follows: log2 fold change, soluble protein after heating vs DMSO (PISA); higher = thermal stabilisation; K562 lysate, 10 uM; active = over 0.2 and 3.5 SD of the protein, either way, in both replicates (recomputed). The gist of the method:
(§1)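 Quantification was by TMTpro 16plex LC-MS/MS with equalised channel sums, applied to the supernatant after 21,000xg for 90 min. Samples were crude K562 extract at 1 mg/mL protein in PBS pH 7.4 with 1 mM MgCl2, treated with 10 μM compound for 30 min, heated for 3 min across 48°C-58°C, pooled and brought to 0.5% NP-40 at 4°C. Values are log-two fold changes in thermal stability relative to solvent controls, from duplicates.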
For the target MGST1 (UniProt P10620), the log2 fold change was inactive: 0.052.

With MRI1 (UniProt Q9BV20), the log2 fold change was inactive: -0.008.

MOB4 (UniProt Q9Y3A3): the log2 fold change was inactive: -0.001.

Regarding MKNK1 (UniProt Q9BUB5), the log2 fold change is inactive: 0.041.

In the case of MIF4GD isoform 3 (UniProt A9UHW6), the log2 fold change was inactive: 0.108.

For MRPL1 (UniProt Q9BYD6), the log2 fold change was inactive: 0.055.

Turning to MLX (UniProt Q9UH92), the log2 fold change was inactive: 0.047.

On to MPI (UniProt P34949), for which the log2 fold change was inactive: 0.029.

With MRGBP (UniProt Q9NV56), the log2 fold change was inactive: 0.002.

Consider MMTAG2 (UniProt Q9BU76), for which the log2 fold change was inactive: 0.097.

Consider MPZL1 (UniProt O95297), for which the log2 fold change was inactive: 0.01.

In the case of MRPL23 (UniProt Q16540), the log2 fold change was inactive: -0.044.

As for MPST isoform 2 (UniProt P25325), the log2 fold change is inactive: 0.023.

Consider MRPL15 (UniProt Q9P015), for which the log2 fold change is inactive: 0.003.

On to MICOS10 (UniProt Q5TGZ0), for which the log2 fold change is inactive: -0.106.

Turning to MIA2 (UniProt Q96PC5), the log2 fold change was inactive: 0.011.

Take MKI67 (UniProt P46013): the log2 fold change is inactive: 0.039.

For MKRN1 (UniProt Q9UHC7), the log2 fold change is inactive: 0.049.

As to MRPL14 (UniProt Q6P1L8), the log2 fold change was inactive: -0.001.

Regarding MICALL1 (UniProt Q8N3F8), the log2 fold change is inactive: 0.011.

With MICALL2 (UniProt Q8IY33), the log2 fold change was inactive: 0.023.

On to MINDY3 (UniProt Q9H8M7), for which the log2 fold change is inactive: 0.039.

On to MPP1 (UniProt Q00013), for which the log2 fold change is inactive: 0.035.

With MON2 isoform 5 (UniProt Q7Z3U7), the log2 fold change is inactive: -0.027.

MORF4L1 isoform 2 (UniProt Q9UBU8): the log2 fold change is inactive: -0.038.

As for MPC2 (UniProt O95563), the log2 fold change was inactive: -0.021.

Take MIOS (UniProt Q9NXC5): the log2 fold change is inactive: 0.029.

For MKRN2 (UniProt Q9H000), the log2 fold change was inactive: -0.005.

Take MMUT (UniProt P22033): the log2 fold change was inactive: 0.036.

On to MORC2 (UniProt Q9Y6X9), for which the log2 fold change was inactive: 0.065.

Consider MMAB (UniProt Q96EY8), for which the log2 fold change is inactive: -0.011.

In the case of MRPL19 (UniProt P49406), the log2 fold change was inactive: 0.067.

Take MRM3 (UniProt Q9HC36): the log2 fold change was inactive: 0.009.

For MORF4L2 (UniProt Q15014), the log2 fold change was inactive: -0.022.

Consider MLXIP (UniProt Q9HAP2), for which the log2 fold change is inactive: 0.045.

For the target MGST3 (UniProt O14880), the log2 fold change was inactive: 0.06.

For MINPP1 (UniProt Q9UNW1), the log2 fold change is inactive: -0.034.

Turning to MOV10 (UniProt Q9HCE1), the log2 fold change was inactive: -0.009.

Compound in another experiment: CC(=O)c1cnc2ccc(-c3cc(Cl)c(O)c(Cl)c3)nc2c1N[C@H]1CC[C@H](CN(C)C)CC1
The experiment is described as above. The procedure, abridged: as §1
With MGST1 (UniProt P10620), the log2 fold change is inactive: 0.039.

MRI1 (UniProt Q9BV20): the log2 fold change was inactive: -0.031.

As for MOB4 (UniProt Q9Y3A3), the log2 fold change is inactive: -0.014.

Consider MKNK1 (UniProt Q9BUB5), for which the log2 fold change was inactive: 0.06.

For MIF4GD isoform 3 (UniProt A9UHW6), the log2 fold change is inactive: -0.032.

For the target MRPL1 (UniProt Q9BYD6), the log2 fold change was inactive: 0.032.

MLX (UniProt Q9UH92): the log2 fold change was inactive: -0.003.

On to MPI (UniProt P34949), for which the log2 fold change is inactive: 0.031.

In the case of MRGBP (UniProt Q9NV56), the log2 fold change was inactive: 0.023.

As for MMTAG2 (UniProt Q9BU76), the log2 fold change is inactive: 0.01.

In the case of MPZL1 (UniProt O95297), the log2 fold change was inactive: -0.008.

MRPL23 (UniProt Q16540): the log2 fold change was inactive: -0.069.

For the target MPST isoform 2 (UniProt P25325), the log2 fold change is inactive: -0.014.

For MRPL15 (UniProt Q9P015), the log2 fold change was inactive: -0.078.

Regarding MICOS10 (UniProt Q5TGZ0), the log2 fold change was inactive: 0.004.

Regarding MIA2 (UniProt Q96PC5), the log2 fold change was inactive: 0.015.

As for MKI67 (UniProt P46013), the log2 fold change is inactive: -0.003.

Regarding MKRN1 (UniProt Q9UHC7), the log2 fold change was inactive: -0.018.

On to MRPL14 (UniProt Q6P1L8), for which the log2 fold change is inactive: 0.05.

MICALL1 (UniProt Q8N3F8): the log2 fold change was inactive: -0.02.

For the target MICALL2 (UniProt Q8IY33), the log2 fold change was inactive: 0.007.

As for MINDY3 (UniProt Q9H8M7), the log2 fold change was inactive: 0.01.

With MPP1 (UniProt Q00013), the log2 fold change is inactive: 0.011.

Consider MON2 isoform 5 (UniProt Q7Z3U7), for which the log2 fold change is inactive: 0.001.

For the target MORF4L1 isoform 2 (UniProt Q9UBU8), the log2 fold change is inactive: -0.012.

Regarding MPC2 (UniProt O95563), the log2 fold change was inactive: 0.012.

In the case of MIOS (UniProt Q9NXC5), the log2 fold change was inactive: 0.029.

Take MKRN2 (UniProt Q9H000): the log2 fold change is inactive: 0.03.

With MMUT (UniProt P22033), the log2 fold change was inactive: 0.02.

Consider MORC2 (UniProt Q9Y6X9), for which the log2 fold change is inactive: 0.02.

Regarding MMAB (UniProt Q96EY8), the log2 fold change is inactive: -0.002.

MRPL19 (UniProt P49406): the log2 fold change was inactive: 0.027.

In the case of MRM3 (UniProt Q9HC36), the log2 fold change is inactive: -0.046.

In the case of MORF4L2 (UniProt Q15014), the log2 fold change is inactive: 0.002.

For MLXIP (UniProt Q9HAP2), the log2 fold change is inactive: 0.007.

For MGST3 (UniProt O14880), the log2 fold change is inactive: -0.004.

Turning to MINPP1 (UniProt Q9UNW1), the log2 fold change is inactive: 0.016.

Consider MOV10 (UniProt Q9HCE1), for which the log2 fold change is inactive: -0.094.
